Source: PubChem BioAssay AID330 (DTP/NCI, 2004)
The list shows only some results of the screen, not a fair sample: it is rich in T/C values a quarter to a half above the control, in often repeated tests (any T/C) and in doses without a T/C. Further doses and runs are listed elsewhere. T/C: endpoint of the treated group in % of that of the vehicle group. Some doses have a count of surviving animals in place of a T/C: the source holds a T/C of zero for them, seemingly a mark for toxic or unscored doses. Some survivor counts are full or nearly so, which does not show that the dose was tolerated: survival well below the control is almost never listed, so the zero probably covers shortened survival too. Counts of survivors are from the toxicity check (mostly the fifth day) where no day follows; animals may have died later. Schedules are NCI's codes, read here as Q, the interval in days (D) or hours (H), X, the number of doses. Some entries hold several experiments; their values stand side by side, smallest first. Some molecules as drawn cover several salts, stereoisomers or complexes of the source; a dose is that of the sample tested. Where survival is the endpoint, the PubChem record calls one and a half times the control and up active, and a quarter to a half above the control has no call in these data; cut-offs in other NCI protocols can differ.

Test system: P388 leukemia ip, CD2F1 mice, survival T/C
Experiment: NCI In Vivo Anticancer Drug Screen. Data for tumor model P388 Leukemia (intraperitoneal) in CD2F1 (CDF1) mice
Settings: T/C endpoint: median survival time, higher T/C = longer survival
[1] = dose: 100.0 mg/kg/injection, schedule: Q01DX009 (ip), vehicle: saline with Tween-80
[2] = dose: 200.0 mg/kg/injection, schedule: Q01DX009 (ip), vehicle: saline with Tween-80
[3] = dose: 200.0 mg/kg/injection, schedule: Q01DX005 (ip), vehicle: saline with Tween-80
[4] = dose: 50.0 mg/kg/injection, schedule: Q01DX009 (ip), vehicle: Klucel (hydroxypropylcellulose) (HPC)
[5] = dose: 100.0 mg/kg/injection, schedule: Q01DX009 (ip), vehicle: Klucel (hydroxypropylcellulose) (HPC)
[6] = dose: 200.0 mg/kg/injection, schedule: Q01DX009 (ip), vehicle: Klucel (hydroxypropylcellulose) (HPC)

What does the source list for `C[S+](C)CCCNC(=O)c1csc(-c2cscn2)n1`?
survivor count (dose: 50.0 mg/kg/injection, schedule: Q01DX005 (ip), vehicle: water): 1 of 6; survivor count (dose: 100.0 mg/kg/injection, schedule: Q01DX005 (ip), vehicle: water): 0 of 6; survivor count (dose: 200.0 mg/kg/injection, schedule: Q01DX005 (ip), vehicle: water): 0 of 6

Which results are given for `CN(c1ccccc1)P(C)(Cl)(c1ccccc1)c1ccccc1`?
survivor count (dose: 25.0 mg/kg/injection, schedule: Q01DX009 (ip), vehicle: saline with Tween-80): 0 of 6; survivor count (dose: 50.0 mg/kg/injection, schedule: Q01DX009 (ip), vehicle: saline with Tween-80): 0 of 6; survivor count [1]: 0 of 6

`CC(=O)OC1CC2CC1C1C3C=CC(C3)C21` (stereo unspecified) was tested. Which survivor count [1] did it give?
Its survivor count is 3 of 6.

How did the survivor count (dose: 100.0 mg/kg/injection, schedule: Q04DX003 (ip), vehicle: saline with Tween-80) turn out when `CCn1cnc(-c2ccccc2)c1-c1ccccc1` was run?
Its survivor count is 1 of 6.

Which survivor count [1] does the source give for `CC(=O)Oc1c(Cl)c(Cl)c(C#N)c(Cl)c1C#N` here?
Its survivor count is 1 of 6 and 4 of 6.

And the survivor count [2]?
Its survivor count is 0 of 6 and 2 of 6.

Which results are given for `CC(=O)c1ccc2c(c1)c1c(C)c3c[n+](C)ccc3c(C)c1n2C`?
T/C (dose: 100.0 mg/kg/injection, schedule: Q01DX001 (ip), vehicle: saline with Tween-80): 133 % of control; T/C (dose: 400.0 mg/kg/injection, schedule: Q01DX001 (ip), vehicle: saline with Tween-80): 149 % of control

Which results are given for `COCCOC(C)C(/C=N/N=C(N)N)=N/N=C(N)N` (stereo unspecified)?
survivor count (dose: 100.0 mg/kg/injection, schedule: Q01DX005 (ip), vehicle: saline): 1 of 6; survivor count (dose: 200.0 mg/kg/injection, schedule: Q01DX005 (ip), vehicle: saline): 0 of 6

With `Cc1ccc(N)c(C(O)(C(F)(F)F)C(F)(F)F)c1` as the compound, how does the survivor count (dose: 100.0 mg/kg/injection, schedule: Q04DX003 (ip), vehicle: Klucel (hydroxypropylcellulose) (HPC)) read?
The survivor count was 0 of 6.

What about the survivor count [2] of the same compound?
Its survivor count is 6 of 6.

And the survivor count (dose: 200.0 mg/kg/injection, schedule: Q04DX003 (ip), vehicle: Klucel (hydroxypropylcellulose) (HPC))?
The survivor count was 0 of 6.

And the survivor count (dose: 400.0 mg/kg/injection, schedule: Q04DX003 (ip), vehicle: Klucel (hydroxypropylcellulose) (HPC))?
Its survivor count is 0 of 6.

How did the survivor count [3] turn out when `CCCCCCCCSC(SCCCCCCCC)C(O)C(O)C(O)CO` (stereo unspecified) was run?
Its survivor count is 3 of 6.

How did the survivor count (dose: 240.0 mg/kg/injection, schedule: Q01DX005 (ip), vehicle: Klucel (hydroxypropylcellulose) (HPC)) turn out when `[Cl][Cu][Cl].c1ccc2c(c1)Sc1ccccc1[N+]2=c1ccc2nc3ccccc3sc-2c1` was run?
Its survivor count is 0 of 6.

How did the survivor count [2] turn out when `Oc1ccc2ccccc2c1/C=N\Sc1ccccc1` was run?
The survivor count was 4 of 6.

With `Cc1cccc(C)c1NC1c2ccccc2C=Cc2ccccc21` as the compound, how does the survivor count [2] read?
The survivor count was 6 of 6.

For `CCCCCCCCCCCCCCCc1cc(O)c(CC=C(C)C)c(=O)o1` (tested in a mixture with another compound), which survivor count (dose: 660.0 mg/kg/injection, schedule: Q01DX005 (ip), vehicle: Klucel (hydroxypropylcellulose) (HPC)) is on record?
The survivor count was 2 of 6.

How did the survivor count [4] turn out when `CSc1cccc(NC(=O)OCCOc2ccc(Br)cc2)c1` was run?
The survivor count was 6 of 6.

What about the survivor count [5] of the same compound?
Its survivor count is 6 of 6.

And the survivor count [6]?
Its survivor count is 6 of 6.

Which survivor count (dose: 120.0 mg/kg/injection, schedule: Q01DX005 (ip), vehicle: saline with Tween-80) does the source give for `CCOC(=O)C1=C(C(=O)c2ccc(OC)cc2)C(c2ccc(Cl)cc2Cl)C(C(=O)c2ccc(OC)cc2)=C(C(=O)OCC)N1` here?
Its survivor count is 6 of 6.

With `CCn1c2ccccc2c2cc(N=Nc3cc[n+]([O-])c4c(O)cccc34)ccc21` as the compound, how does the survivor count [1] read?
Its survivor count is 6 of 6.

And the survivor count [2]?
Its survivor count is 6 of 6.

With `COC(=O)/C(=C1/OC(=O)C(c2ccc(Cl)cc2)=C1O)c1ccc(OC)cc1` as the compound, how does the survivor count (dose: 200.0 mg/kg/injection, schedule: Q01DX005 (ip), vehicle: Klucel (hydroxypropylcellulose) (HPC)) read?
Its survivor count is 0 of 6.

Which survivor count (dose: 50.0 mg/kg/injection, schedule: Q01DX009 (ip), vehicle: saline) does the source give for `Cc1ccc(S(=O)(=O)OCC(O)C(O)COS(=O)(=O)c2ccc(C)cc2)cc1` (stereo unspecified) here?
The survivor count was 6 of 6.

What does the source list for `O=C(NO)c1ccccc1`?
survivor count [1]: 6 of 6; survivor count (dose: 200.0 mg/kg/injection, schedule: Q01DX001 (ip), vehicle: saline): 3 of 6; survivor count (dose: 400.0 mg/kg/injection, schedule: Q01DX001 (ip), vehicle: saline): 3 of 6

With `Cn1cccc1/C=N/N1CC(=O)N(c2cccc(Cl)c2)CC1=O` as the compound, how does the survivor count [3] read?
Its survivor count is 1 of 6.

Which results are given for `NNc1cnc2ccccc2n1`?
survivor count (dose: 150.0 mg/kg/injection, schedule: Q01DX009 (ip), vehicle: suspension in saline): 4 of 6; survivor count (dose: 150.0 mg/kg/injection, schedule: Q04DX003 (ip), vehicle: saline): 3 of 6 and 4 of 6

Which results are given for `Cc1cccc(Nc2c(N)nc(N)nc2N)c1`?
survivor count [1]: 2 of 6; survivor count (dose: 200.0 mg/kg/injection, schedule: Q04DX003 (ip), vehicle: saline with Tween-80): 0 of 6; survivor count (dose: 400.0 mg/kg/injection, schedule: Q04DX003 (ip), vehicle: saline with Tween-80): 0 of 6

With `CC1(C)CC(C)(C)[P+]1(C)c1ccccc1` as the compound, how does the survivor count (dose: 100.0 mg/kg/injection, schedule: Q01DX001 (ip), vehicle: saline) read?
Its survivor count is 0 of 6.

How did the T/C (dose: 25.0 micrograms/kg/injection, schedule: Q01DX009 (ip), vehicle: saline + alcohol) turn out when `COC1/C=C/C=C(/C)Cc2cc(O)c(Cl)c(c2)N(C)C(=O)CC(OC(=O)C(C)C)C2(C)OC2C(C)C2CC1(O)NC(=O)O2` (stereo unspecified) was run?
The T/C was 142 % of control.

For `CNc1ccc2c(cc1=O)C(NC(C)=O)CCc1cc(OC)c(OC)c(OC)c1-2` (stereo unspecified), which T/C (dose: 0.04 mg/kg/injection, schedule: Q01DX009 (ip), vehicle: Klucel (hydroxypropylcellulose) (HPC)) is on record?
Its T/C is 126 % of control.

What about the T/C (dose: 0.08 mg/kg/injection, schedule: Q01DX009 (ip), vehicle: Klucel (hydroxypropylcellulose) (HPC)) of the same compound?
The T/C was 148 % of control.

And the T/C (dose: 0.12 mg/kg/injection, schedule: Q01DX009 (ip), vehicle: Klucel (hydroxypropylcellulose) (HPC))?
The T/C was 141 % of control.

And the T/C (dose: 0.16 mg/kg/injection, schedule: Q01DX009 (ip), vehicle: Klucel (hydroxypropylcellulose) (HPC))?
Its T/C is 142 % of control.

What about the survivor count (dose: 0.25 mg/kg/injection, schedule: Q01DX009 (ip), vehicle: Klucel (hydroxypropylcellulose) (HPC)) of the same compound?
The survivor count was 4 of 6.

And the survivor count (dose: 0.31 mg/kg/injection, schedule: Q01DX009 (ip), vehicle: Klucel (hydroxypropylcellulose) (HPC))?
The survivor count was 5 of 6.

And the survivor count (dose: 0.5 mg/kg/injection, schedule: Q01DX009 (ip), vehicle: Klucel (hydroxypropylcellulose) (HPC))?
The survivor count was 1 of 6 and 5 of 6.

What about the survivor count (dose: 0.62 mg/kg/injection, schedule: Q01DX009 (ip), vehicle: Klucel (hydroxypropylcellulose) (HPC)) of the same compound?
The survivor count was 4 of 6.

And the survivor count (dose: 1.0 mg/kg/injection, schedule: Q01DX009 (ip), vehicle: Klucel (hydroxypropylcellulose) (HPC))?
Its survivor count is 1 of 6 and 3 of 6.

And the survivor count (dose: 1.25 mg/kg/injection, schedule: Q01DX009 (ip), vehicle: Klucel (hydroxypropylcellulose) (HPC))?
The survivor count was 2 of 6.

And the survivor count (dose: 2.0 mg/kg/injection, schedule: Q01DX009 (ip), vehicle: Klucel (hydroxypropylcellulose) (HPC))?
Its survivor count is 0 of 6.

What about the survivor count (dose: 2.5 mg/kg/injection, schedule: Q01DX009 (ip), vehicle: Klucel (hydroxypropylcellulose) (HPC)) of the same compound?
Its survivor count is 0 of 6.

And the survivor count (dose: 5.0 mg/kg/injection, schedule: Q01DX009 (ip), vehicle: Klucel (hydroxypropylcellulose) (HPC))?
Its survivor count is 0 of 6.

What about the survivor count (dose: 10.0 mg/kg/injection, schedule: Q01DX009 (ip), vehicle: Klucel (hydroxypropylcellulose) (HPC)) of the same compound?
The survivor count was 0 of 6.

And the survivor count (dose: 20.0 mg/kg/injection, schedule: Q01DX009 (ip), vehicle: Klucel (hydroxypropylcellulose) (HPC))?
The survivor count was 0 of 6.

And the survivor count (dose: 40.0 mg/kg/injection, schedule: Q01DX009 (ip), vehicle: Klucel (hydroxypropylcellulose) (HPC))?
The survivor count was 0 of 6.

How did the survivor count [4] turn out when `CCCCCC1=C/N\C(C#N)=C(C#N)/N=C/C(CCCCC)=C\N\C(C#N)=C(C#N)/N=C\1` was run?
Its survivor count is 6 of 6.

And the survivor count [5]?
The survivor count was 6 of 6.

And the survivor count [6]?
The survivor count was 6 of 6.

For `O=C1c2ccccc2-c2c1c1ccccc1c(=O)n2Cc1ccccc1`, which survivor count (dose: 50.0 mg/kg/injection, schedule: Q01DX005 (ip), vehicle: saline with Tween-80) is on record?
The survivor count was 5 of 5.

What about the survivor count (dose: 100.0 mg/kg/injection, schedule: Q01DX005 (ip), vehicle: saline with Tween-80) of the same compound?
Its survivor count is 5 of 5.

And the survivor count [3]?
The survivor count was 5 of 5.

For `Cc1ccc(Cl)c2ccccc12`, which T/C [2] is on record?
Its T/C is 130 % of control.

Which survivor count [1] does the source give for `CCCCCCC(/C=C/c1ccc(Cl)c(Cl)c1)=N\Nc1ccc(Cl)c(Cl)c1` here?
The survivor count was 6 of 6.
